Laboratory results taken from paper PMC6035379 (Journal of Ginseng Research, 2017).
Where a name gives a salt, the structure may show the parent alone.

Assay type: in vivo, rats
[1] = rats, fexofenadine 10 mg/kg oral, control group

AUC(0-t) (male, Sprague-Dawley, rat, plasma, po, 10 mg/kg): 138 ng·h/mL | second plasma peak concentration [1]: 18 ng/mL | time of first plasma peak [1]: 0.5 h | time of second plasma peak [1]: 2 to 3 h
SMILES: CC(C)(C(=O)O)c1ccc(C(O)CCCN2CCC(C(O)(c3ccccc3)c3ccccc3)CC2)cc1 (stereo not shown) [fexofenadine, Fexofenadine hydrochloride]
